Source: article PMC3771576
No signal at the amounts used counts as a negative.

Protein sequences, listed by entry. Tags and fused reporters are not part of them.
UniProt B5DE31, whole entry: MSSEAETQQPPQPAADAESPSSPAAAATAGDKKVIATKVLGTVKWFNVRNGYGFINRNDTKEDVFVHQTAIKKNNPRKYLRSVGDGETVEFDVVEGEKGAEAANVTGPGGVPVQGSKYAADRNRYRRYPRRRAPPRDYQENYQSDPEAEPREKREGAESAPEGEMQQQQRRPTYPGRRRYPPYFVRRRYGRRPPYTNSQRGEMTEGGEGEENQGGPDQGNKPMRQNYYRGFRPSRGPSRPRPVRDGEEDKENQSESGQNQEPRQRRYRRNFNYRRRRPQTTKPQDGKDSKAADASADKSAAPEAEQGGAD

Biological target: rYbx1 (wild type) (Danio rerio (zebrafish)) (UniProt B5DE31)
Experiment: EMSA
Conditions: RNA EMSA; binding buffer and temperature not given; extract lysis buffer 20 mM Tris pH 8.0, 100 mM NaCl, 0.1 mM EDTA, 1 mM 6-aminohexanoic acid, 1 mM PMSF, 25% glycerol; recombinant protein; residues 1-310; protein details: 6xHis; label: 32P (radioactive); probe letters rebuilt from the primers and the genome

GGGAGAAAAGCCAGACCAUUCCUUCUUUUCAACGCACUCAUUUCCUAGCUAAAGCCAUCGUGACACACCUUAGCAUUCCUGUUCCCACCUACGAGACGCUGCAUUCGUCUCUGUAGAUGUCUGUGUGUGUGUGUGUUAGUUUCUUUUGACAGUAUUUGUGUCAGUGUCACUCCACAGGCAUUGCUGUAGUUGUUGCCAUUUUGGGUGUAAUCACGUUGUGUUGGUGUAAAGAGAAUAACCGAAUAAAGUUUAAUGAGGUAUAAAGGCUACUGUAAUGCAGUUUAAAAA [gapdh probe]
binding result: no binding
